In all, about 350,000 compounds went through this assay and about 6,000 (1.7%) were called active. Inconclusive results, whose numbers are uncertain, are shown with a selection of clear calls. Cut-off read from the data, not from the text of the source: active = CPE inhibition above about 20% (passing the limit was not always enough); inconclusive = no clear call, values can overlap the other calls; tested in BHK-21 cells.
test: protection of cells from dengue 2 killing – plate reader, single concentration, primary screen (AID 651640); settings: DENV2-infected cells, cytopathic effect rescue, at 9.99 µM, active compounds read high;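 note: 0% = median of neutral control wells and 100% = median of positive control wells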

Row | SMILES | CPE inhibition
1 | Oc1ccc2ccccc2c1/C=C/c1ccc2c(Br)cc(Br)c(O)c2n1 | inactive: -8.54%
2 | CN(C)C(=O)C[C@@H]1CC[C@H]2[C@H](COc3ccc(NC(=O)C4CCOCC4)cc3C(=O)N2C)O1 | inconclusive: 58.8%
3 | CC=Cc1ccc2n(c1=O)C[C@@H]1[C@@H](CO)[C@H](C(=O)N3CCc4ccccc4C3)N(C(=O)CC)[C@H]21 (mixture of isomers) | inconclusive: 26.1%
4 | C[C@@H]1CCCCO[C@@H](CN(C)C(=O)Cc2ccccc2)[C@H](C)CN([C@H](C)CO)C(=O)c2cc(NS(=O)(=O)c3ccc(Cl)cc3)ccc2O1 | active: 85.3%
5 | CC=Cc1ccc2n(c1=O)C[C@H]1[C@H](CO)[C@@H](C(=O)N3CCC(Cc4ccccc4)CC3)N(CC)[C@@H]21 (mixture of isomers) | inactive: -10.4%
6 | Cc1ccc(S(=O)(=O)Nc2ccc3c(c2)C(=O)N([C@H](C)CO)C[C@H](C)[C@H](CN(C)S(=O)(=O)c2cccs2)OCCCC[C@H](C)O3)cc1 | inconclusive: 20.9%
7 | COCC#Cc1ccc([C@H]2[C@H](CO)N3CCCCN(Cc4ccncc4)C[C@@H]23)cc1 | inactive: 3.44%
8 | COc1ccccc1-c1noc2c1C(=O)N(Cc1cn(Cc3ccccc3)nn1)CC2 | active: 55.8%
9 | CCCN1[C@H](C(=O)NC2Cc3ccccc3C2)[C@@H](CO)[C@@H]2Cn3c(cccc3=O)[C@@H]21 | inactive: -9.85%
10 | O=C(c1ccncc1)N1CCCC(N2CCN(c3cccc(C(F)(F)F)c3)CC2)C1 (centres undefined) | active: 20.9%
11 | CCc1ccc(NC(=O)COc2coc(CN3CCN(c4ccccc4)CC3)cc2=O)cc1 | inconclusive: 27.8%
12 | CC(=O)N[C@@H]1CC[C@@H](CC(=O)NCc2ccc(Cl)cc2)O[C@H]1CO | inconclusive: 29.5%
13 | O=C1CN(C(=O)CNCc2ccc(Cl)cc2)c2ccccc2N1 | inconclusive: 22.1%
14 | C[C@H](CO)N1C[C@H](C)[C@H](CN(C)C(=O)Nc2ccc3c(c2)OCO3)Oc2ccc(N(C)C)cc2CC1=O | inactive: -6.38%
15 | COc1cc(OC)c(OC)cc1/C=C/c1cc(C(F)(F)F)[nH]c(=O)n1 | inactive: 3.57%
16 | C[C@H]1CN([C@@H](C)CO)S(=O)(=O)c2ccc(-c3cccnc3)cc2O[C@@H]1CN(C)C(=O)CN(C)C | inconclusive: 26.1%
17 | COc1ccc(CNC(=O)CCCn2nc(C)c3c(C)n(-c4ccc(C)cc4)nc3c2=O)cc1OC | inconclusive: 48.2%
18 | O=C(C[C@@H]1CC[C@H](NC(=O)C2CCOCC2)[C@H](CO)O1)NCc1ccncc1 | inconclusive: 22.3%
19 | Cc1ccc(Cc2nnc(SCC(=O)Nc3ccccc3Cl)[nH]c2=O)cc1 | inconclusive: 22.9%
20 | CCNc1nc(NCC)nc(N/N=C/c2ccccc2)n1 | inconclusive: 29%
21 | CCC(=O)N1CC[C@H]2[C@H](CO)Nc3ccc(-c4ccc(C(=O)N(C)C)cc4)cc3[C@H]21 | inconclusive: 46.8%
22 | COc1ccc(C2CC(=O)c3c(O)cc(O)cc3O2)cc1O (centres undefined) | active: 23.5%

Row | SMILES | CPE inhibition
23 | CCn1cc(S(=O)(=O)NCc2ccccc2Br)cn1 | inconclusive: 32.4%
24 | Cc1ccc(NC(=S)Nc2ccc(OC(F)F)c(Cl)c2)cc1Cl | inactive: -3.57%
25 | C[C@@H]1CCCCO[C@H](CN(C)Cc2ccncc2)[C@H](C)CN([C@H](C)CO)C(=O)c2cc(NS(=O)(=O)c3cccs3)ccc2O1 | inconclusive: 42.9%
26 | Cc1cc(C)n2nc(C(=O)OCC(=O)NC3CCS(=O)(=O)C3)nc2n1 (centres undefined) | inconclusive: 46.1%
27 | C[C@H](CO)N1C[C@H](C)[C@H](CN(C)CC2CC2)Oc2ccc(NC(=O)Nc3ccc(F)cc3)cc2CC1=O | active: 41.8%
28 | CCN(CC)C(=O)c1ccc(-c2nnc(Nc3ccc(O)cc3)c3ccccc23)cc1 | inconclusive: 52.8%
29 | COCCCNC(=O)c1ccc(CN2CCc3ccccc3C2)cc1 | inactive: -6.25%
30 | CCCC#Cc1cnc2c(c1)C(=O)N([C@H](C)CO)C[C@@H](C)[C@@H](CN(C)C(=O)CCN1CCCCC1)O2 | inactive: -2.12%
31 | Cc1ccccc1-c1ccc([C@@H]2[C@H](CO)N3CCCCN(S(C)(=O)=O)C[C@@H]23)cc1 | inactive: -17%
32 | COC(=O)C[C@@H]1C[C@@H]2c3cc(NC(=O)CN(C)C)ccc3O[C@@H]2[C@H](CO)O1 | inactive: -7.68%
33 | CC=Cc1ccc2n(c1=O)C[C@@H]1[C@@H](CO)[C@H](C(=O)NCC)N(Cc3nccs3)[C@H]21 (mixture of isomers) | inconclusive: 21.9%
34 | COC(=O)c1cc(S(=O)(=O)NCCN2CCN(c3ccccc3F)CC2)c[nH]1 | inconclusive: 20.4%
35 | O=C(NCC1CC1)[C@H]1[C@H](CO)[C@H]2Cn3c(cccc3=O)[C@@H]1N2C(=O)c1ccc(F)cc1 | inactive: 4.16%
36 | O=C(NCc1ccccc1OC(F)(F)F)C1CCC(=O)N(Cc2cccc(F)c2)C1 (centres undefined) | inconclusive: 22.9%
37 | O=C(c1cccc(S(=O)(=O)N2CCOCC2)c1)N1CCN(c2ccccc2)CC1 | inconclusive: 29.1%
38 | O=C(CCN1CCCCC1)NCC[C@@H]1CC[C@@H](NC(=O)C2CC2)[C@@H](CO)O1 | inactive: 1.47%
39 | COc1cccc(-c2ccc3c(c2)[C@@H]2[C@@H](CCN2C(=O)C2CCCC2)[C@H](CO)N3)c1 | inactive: 6.27%
40 | Cc1ccc(S(=O)(=O)N(C)C[C@@H]2Oc3ccc(NC(=O)Cc4ccccc4)cc3C(=O)N([C@@H](C)CO)C[C@@H]2C)cc1 | inconclusive: 25.4%
41 | CCN1CCN(c2cc(C)c3cc(NC(=S)NCCCN4CCc5ccccc5C4)ccc3n2)CC1 | inconclusive: 21.7%
42 | N#Cc1ccc(-c2ccc3c(c2)[C@H]2[C@H](CCN2Cc2ccc4c(c2)OCO4)[C@@H](CO)N3)cc1 | inconclusive: 41.9%
43 | CCCNC(=O)C[C@@H]1C[C@@H]2c3cc(NC(=O)c4cccnc4)ccc3O[C@@H]2[C@H](CO)O1 | inactive: 1.64%
44 | COc1ccc(C2c3c(oc4ccccc4c3=O)C(=O)N2CCN2CCOCC2)cc1OC (centres undefined) | inconclusive: 27%

Rewritten tab-delimited: 3 of the compounds above
Row	SMILES	CPE inhibition
34	COC(=O)c1cc(S(=O)(=O)NCCN2CCN(c3ccccc3F)CC2)c[nH]1	inconclusive: 20.4%
35	O=C(NCC1CC1)[C@H]1[C@H](CO)[C@H]2Cn3c(cccc3=O)[C@@H]1N2C(=O)c1ccc(F)cc1	inactive: 4.16%
36	O=C(NCc1ccccc1OC(F)(F)F)C1CCC(=O)N(Cc2cccc(F)c2)C1 (centres undefined)	inconclusive: 22.9%

Source: PubChem BioAssay AID651640 (Broad Institute, 2012)
